{"sequences": {"note": "Sequences of proteins named here, by UniProt entry; tags and fusion partners are left off.", "UniProt Q14191, whole entry, looked up": "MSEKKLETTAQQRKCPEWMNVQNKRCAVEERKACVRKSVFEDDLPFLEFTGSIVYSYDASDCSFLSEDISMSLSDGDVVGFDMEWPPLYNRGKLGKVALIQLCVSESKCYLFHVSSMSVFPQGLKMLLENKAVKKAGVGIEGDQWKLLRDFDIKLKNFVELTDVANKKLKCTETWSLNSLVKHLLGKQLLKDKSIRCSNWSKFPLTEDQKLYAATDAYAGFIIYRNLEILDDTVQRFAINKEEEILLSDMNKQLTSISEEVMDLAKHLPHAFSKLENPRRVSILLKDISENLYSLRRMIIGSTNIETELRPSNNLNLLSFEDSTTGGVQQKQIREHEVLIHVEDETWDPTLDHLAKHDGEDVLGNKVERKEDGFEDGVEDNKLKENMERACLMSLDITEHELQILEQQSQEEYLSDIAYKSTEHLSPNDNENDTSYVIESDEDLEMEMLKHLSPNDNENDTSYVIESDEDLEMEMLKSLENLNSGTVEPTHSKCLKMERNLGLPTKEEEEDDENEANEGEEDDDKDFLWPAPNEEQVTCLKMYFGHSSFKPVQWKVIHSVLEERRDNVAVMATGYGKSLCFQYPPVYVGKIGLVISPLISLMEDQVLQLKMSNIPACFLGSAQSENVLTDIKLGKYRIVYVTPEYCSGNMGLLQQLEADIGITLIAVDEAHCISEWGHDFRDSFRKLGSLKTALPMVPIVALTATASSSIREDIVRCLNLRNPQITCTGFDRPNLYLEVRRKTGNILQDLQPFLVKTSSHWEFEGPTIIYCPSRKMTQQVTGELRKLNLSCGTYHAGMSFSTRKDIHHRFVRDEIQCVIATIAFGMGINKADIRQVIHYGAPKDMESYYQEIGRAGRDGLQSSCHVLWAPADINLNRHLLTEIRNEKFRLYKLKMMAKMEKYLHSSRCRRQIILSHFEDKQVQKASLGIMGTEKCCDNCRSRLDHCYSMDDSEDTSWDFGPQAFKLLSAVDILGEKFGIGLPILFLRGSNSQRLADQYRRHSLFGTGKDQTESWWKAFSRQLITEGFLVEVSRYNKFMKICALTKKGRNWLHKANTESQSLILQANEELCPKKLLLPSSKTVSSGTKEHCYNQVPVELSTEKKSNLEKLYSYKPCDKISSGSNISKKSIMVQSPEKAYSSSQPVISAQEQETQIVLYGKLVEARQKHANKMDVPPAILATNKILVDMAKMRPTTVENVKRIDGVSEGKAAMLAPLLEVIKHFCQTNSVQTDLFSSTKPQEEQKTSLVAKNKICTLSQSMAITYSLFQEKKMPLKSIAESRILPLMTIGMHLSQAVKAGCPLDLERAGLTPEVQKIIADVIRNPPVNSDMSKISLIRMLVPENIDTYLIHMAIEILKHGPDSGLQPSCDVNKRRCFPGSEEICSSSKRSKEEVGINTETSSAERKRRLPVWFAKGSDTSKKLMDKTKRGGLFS"}, "source": "PubChem BioAssay AID651768", "about": "(National Center for Advancing Translational Sciences (NCATS), 2012)", "note": "Hit rate of the full screen: of about 360,000 compounds, about 1,700 (0.47%) were called active. This list was built around the results that the source calls inconclusive (neither active nor inactive); the mix of calls is not that of the screen. Calls follow the shape of the dose curve; as a rule, active = well fitted inhibition curve with a large enough effect; inconclusive = small, poorly fitted or top-dose-only effect; inactive = no such curve, though single readings can be large or run the other way. Where the call is inconclusive, the potency comes from a doubtful curve fit. % is scaled to controls: 0 for no effect and ±100 for the full control effect; potency is read from the fitted curve at half-maximal effect.", "data": [{"target": "Bifunctional 3'-5' exonuclease/ATP-dependent helicase WRN (Homo sapiens) (UniProt Q14191)", "experiment": "qHTS for Inhibitors of WRN Helicase; also: nearly all actives have a fitted effect of over 55% in size", "conditions": "WRN helicase unwinding, fluorescent forked duplex, kinetic; activity change, negative = inhibition: at 114 µM (top of the series) unless noted", "description": "Inhibition of DNA repair is proposed as a strategy for combating cancer. Synthetic lethality is an approach that exploits preexisting DNA repair deficiencies in certain tumors to develop inhibitors of DNA repair pathways that compensate for the tumor-associated DNA repair deficiency. Because helicases play critical roles in the DNA damage response and in DNA repair, particularly in actively dividing and replicating cells, characterization of synthetic lethal relationships of DNA helicases may be of value in developing improved anticancer treatment strategies; moreover, small molecules that specifically target a given DNA helicase may be useful for understanding its role in cellular nucleic acid metabolism. The goal of this project is to identify small molecule, non-covalent chemical inhibitors of the Werner syndrome (WS) helicase (WRN), which plays an important role in cell proliferation, the replication stress response, and DNA repair. […] The WRN gene product that is defective in the chromosomal instability disorder has DNA helicase and exonuclease activities and interacts with a number of nuclear proteins to maintain genomic stability. We will employ an optimized high-throughput screening assay that utilizes a fluorescence intensity modulation scheme with a fluorophore and quencher positioned near one another within a duplex deoxyoligonucleotide that contains a single forked structure. After a high-throughput screen of the ~350,000-member Molecular Libraries Small Molecule Repository (MLSMR) collection, followed by data analysis and hit selection, a panel of confirmatory, as well as secondary and ternary, assays will be employed to identify high-confidence WRN inhibitors. Structure-activity relationships will be investigated for the top candidate inhibitor series through medchem expansion. These are the results of the primary screening campaign against the MLSMR. NIH Chemical Genomics Center [NCGC] NIH Molecular Libraries Probe Centers Network [MLPCN] MLPCN Grant: MH096530 Assay Submitter (PI): Robert Brosh, National Institute of Aging\nThree muL of reagents (buffer in columns 3 and 4 as negative controls; WRN at 20 nM final concentration in columns 1 and 2 as positive controls; columns 5-48 as test reactions) will be dispensed into a 1536-well Greiner black plate via solenoid-valve based nanoliter dispensers. Compounds (23 nL each in columns 5-48) and control (23 nL each in column 2 as dose-response) will be transferred via a Kalypsys pintool equipped with a 1536-pin array. Plates will be incubated for 15 min at room temperature, and then 1 µL of substrate (100 nM forked duplex oligonucleotide and 2 mM ATP final concentrations) will be added to start reaction, and plate will be transferred into a ViewLux high-throughput CCD imager where reaction progress is measured in kinetic mode using standard red-fluorescence optics (excitation filter 525 nm, emission filter 598 nm).", "values": [{"smiles": "COc1ccc(Cc2nnc(NC(=O)Cc3cccs3)s2)cc1OC", "Potency": "inconclusive: 56.2 µM [inhibitor, partial curve]"}, {"smiles": "O=C(O)COc1cccc(/C=C2/SC(=S)N(Cc3ccccc3)C2=O)c1", "Potency": "inconclusive: 79.4 µM [inhibitor, partial curve]"}, {"smiles": "CCn1cc(/C=N/NC(=O)COc2cccc3cccnc23)c2ccccc21", "Potency": "inconclusive: 22.4 µM [inhibitor, single point]"}, {"smiles": "Cn1nccc1C(=O)N(CCN1CCCCC1)CC1CCCN(C2CCCC2)C1", "note": "(stereo not given)", "Potency": "inactive"}, {"smiles": "CCCn1nc(C(=O)OCC(=O)Nc2ncc(Cl)c(C)c2Cl)c2ccccc2c1=O", "Potency": "inconclusive: 39.8 µM [inhibitor, single point]"}, {"smiles": "O=C(O)CNC(=O)c1ccc(OC(F)F)cc1", "Potency": "inactive"}, {"smiles": "Cc1ccc(NC(=O)c2nc(S(=O)(=O)Cc3ccccc3)ncc2Cl)cc1", "Potency": "inconclusive: 17.8 µM [inhibitor, full curve, poor fit]"}, {"smiles": "CCNc1ccccc(C(=O)/C=C/c2ccc3c(c2)OCO3)c1=O", "Potency": "active: 56.2 µM"}, {"smiles": "Cc1ccc(C2C(C#N)=C(N)Oc3n[nH]c(-c4ccccc4)c32)o1", "note": "(stereo not given)", "Potency": "inconclusive: 89.1 µM [inhibitor, single point]"}, {"smiles": "COc1ccc(NC(=O)C2(S(=O)(=O)c3ccc(C)cc3)CC2)cc1OC", "Potency": "inactive"}, {"smiles": "O=S(=O)(O)c1cc2onnc2c2ccccc12", "Potency": "active: 56.2 µM"}, {"smiles": "Cn1cnnc1SCC(=O)NNC(=O)c1ccc(Cl)cc1", "Potency": "inconclusive: 22.4 µM [inhibitor, single point]"}, {"smiles": "O=C(CSc1nc2ccccc2[nH]1)NC1CCCC1", "Potency": "inconclusive: 3.16 µM [inhibitor, full curve, poor fit]"}, {"smiles": "O=C1NCC2=C1C(c1ccccc1)Nc1ccccc1N2", "note": "(stereo not given)", "Potency": "inconclusive: 50.1 µM [inhibitor, partial curve]"}, {"smiles": "CC(Oc1ccccc1Cl)C(=O)Nc1ccc(S(=O)(=O)N2CCN(C)CC2)cc1", "note": "(stereo not given)", "Potency": "active: 31.6 µM"}, {"smiles": "Cc1oc(-c2ccc(Cl)cc2)cc1-c1nn2c(-c3ccoc3C)nnc2s1", "Potency": "inconclusive: 31.6 µM [inhibitor, partial curve]"}, {"smiles": "NC1=NC(=O)/C(=C/c2cn(CCC(=O)O)nc2-c2ccc(Cl)cc2)S1", "Potency": "inconclusive: 28.2 µM [inhibitor, full curve]"}, {"smiles": "CCC(=O)Nc1cccc(C(=O)/C=C/c2cc(Br)ccc2OC)c1", "activity change, negative = inhibition": "inactive: -8.67% [at 11.6 µM]"}, {"smiles": "CC1(C)CC(=O)C(C(C2=C(O)CC(C)(C)CC2=O)c2cccs2)C(=O)C1", "note": "(stereo not given)", "Potency": "inconclusive: 39.8 µM [inhibitor, partial curve]"}, {"smiles": "COc1ccc(-c2ccnc3cc(C(=O)O)nn23)cc1", "Potency": "inactive"}, {"smiles": "CC(C)[C@H](NC(=O)c1ccc(F)cc1)C(=O)N(C)Cc1cccs1", "Potency": "inactive"}, {"smiles": "CCOc1ccccc1CN1CCN(S(=O)(=O)CC)CC1", "Potency": "inactive"}, {"smiles": "C=CCn1c(=O)[nH]c2cc(C(=O)N3CCN(c4ccc(C(C)=O)cc4)CC3)ccc2c1=O", "Potency": "inconclusive: 56.2 µM [inhibitor, partial curve]"}, {"smiles": "COc1ccc(C2C(C(C)=O)=C(C)N=c3s/c(=C\\c4cc(C)n(C)c4C)c(=O)n32)c(OC)c1", "note": "(stereo not given)", "Potency": "inconclusive: 79.4 µM [inhibitor, partial curve]"}, {"smiles": "Cc1ccc(C(C2=C(O)CC(C)(C)CC2=O)C2C(=O)CC(C)(C)CC2=O)o1", "note": "(stereo not given)", "Potency": "inconclusive: 50.1 µM [inhibitor, partial curve]"}, {"smiles": "COc1ccc(C(=O)OCC(=O)Nc2ncc([N+](=O)[O-])s2)cc1OC", "Potency": "active: 50.1 µM"}, {"smiles": "CCOC(=O)c1c(CSc2ccccc2)n(C)c2cc(Br)c(OC)c(O)c12", "Potency": "inactive"}, {"smiles": "CCOc1ccc2nc(N3C(=O)C(O)=C(C(=O)c4ccco4)C3c3ccco3)sc2c1", "note": "(stereo not given)", "activity change, negative = inhibition": "inactive: -4.85% [at 11.6 µM]"}, {"smiles": "COc1ccc(N/C=C2\\C(=O)CCc3c2oc2cc(Cl)c(O)c(Cl)c32)cc1", "Potency": "inconclusive: 63.1 µM [inhibitor, partial curve, poor fit]"}, {"smiles": "O=C(CSc1nc(-c2ccc(F)cc2)nc2c1Cc1ccccc1O2)Nc1cccc(C(=O)O)c1", "Potency": "inconclusive: 63.1 µM [inhibitor, partial curve, poor fit]"}, {"smiles": "O=C(C1CCN(Cc2ccccc2)CC1)N1CCN(C/C=C/c2ccccc2)CC1", "Potency": "inconclusive: 56.2 µM [inhibitor, partial curve]"}, {"smiles": "COc1ccc(/C=N/N2C(C)CCCC2C)cc1O", "note": "(stereo not given)", "Potency": "inactive"}, {"smiles": "O=C(Cc1c[nH]c2ccccc12)NNC(=O)c1ccccc1", "Potency": "inconclusive: 11.2 µM [inhibitor, partial curve]"}, {"smiles": "CN=c1scc(C)n1/N=C/c1ccc(O)c(O)c1O", "Potency": "active: 20 µM"}, {"smiles": "CC1(OC(=O)C2CCCC2)C(=O)C=C2C=C(c3ccc(C#N)cc3)OC=C2C1=O", "note": "(stereo not given)", "Potency": "inconclusive: 50.1 µM [inhibitor, partial curve]"}, {"smiles": "O=C(Nc1ccccc1-c1ccccc1)c1ccccc1Br", "Potency": "inactive"}, {"smiles": "COc1ccc(NC(=O)c2cc(-c3cc(C)cc(F)c3)n[nH]2)cc1OC", "Potency": "inactive"}, {"smiles": "CCC(=O)NC1=C(Cl)C(=O)C(NC(=O)CC)=C(Cl)C1=O", "Potency": "inconclusive: 89.1 µM [inhibitor, single point]"}, {"smiles": "Cc1ccc(NC(=O)CN(C)CC(=O)Nc2ccc(F)c(F)c2F)c(Cl)c1", "Potency": "inconclusive: 89.1 µM [inhibitor, single point]"}, {"smiles": "C#CCOCCOCCOCCNc1nc(N2CCN(C(=O)[C@H](CCCCN)n3cc([C@@H](N)C(C)CC)nn3)CC2)nc(N2CCN(C(=O)[C@H](Cc3ccc(O)cc3)n3cc([C@@H](N)C(C)CC)nn3)CC2)n1", "note": "(stereo not given in full)", "Potency": "inactive"}, {"smiles": "O=C(OCc1ccc([N+](=O)[O-])cc1)c1cc(=O)c2ccccc2o1", "Potency": "inconclusive: 89.1 µM [inhibitor, single point]"}, {"smiles": "Nc1nc(SCc2ccc(Cl)cc2Cl)nc2nc3c(cc12)CCCC3", "Potency": "inconclusive: 79.4 µM [inhibitor, partial curve]"}, {"smiles": "CCCN(CCC)CCNC(=O)c1cc2c(-c3ccccc3F)nn(C)c2s1", "Potency": "inactive"}, {"smiles": "Cc1cc(C(=O)N/N=C2/CC(C)CC(C)(C)C2)c(C)o1", "note": "(stereo not given)", "Potency": "inactive"}, {"smiles": "O=C1/C(=C/c2ccc(O)c(O)c2)SC(=S)N1Nc1ccccc1", "Potency": "inconclusive: 17.8 µM [inhibitor, full curve]"}, {"smiles": "CCOC(=O)CN1C(=O)S/C(=C/C=C/c2ccc(N(C)C)cc2)C1=O", "Potency": "inconclusive: 28.2 µM [inhibitor, single point]"}, {"smiles": "CCCSc1nc(C)c(-c2csc(C(C#N)=C3CCCC3)n2)cc1C#N", "Potency": "inconclusive: 63.1 µM [inhibitor, partial curve]"}, {"smiles": "Cc1[nH]c2ccccc2c1C(=O)COC(=O)C1CC(=O)N(Cc2ccco2)C1", "note": "(stereo not given)", "Potency": "inactive"}, {"smiles": "CCOC(=O)/C=C1/SCC(=O)N1CC(=O)c1ccc[nH]1", "Potency": "inactive"}, {"smiles": "CC1=NN(c2cccc(C(=O)O)c2)C(=O)/C1=C\\C=C\\c1ccco1", "Potency": "active: 4.74 µM"}, {"smiles": "Cc1cccc(N2C(S)=C(C#N)C(=O)NC2c2cccs2)c1", "note": "(stereo not given)", "Potency": "inactive"}, {"smiles": "CC1CC(=O)C2=C(C1)Nc1nc3ccccc3n1C2c1cccnc1", "note": "(stereo not given)", "Potency": "inactive"}, {"smiles": "Cc1cc(NC(=O)CSc2cn(CCNC(=O)c3ccccc3)c3ccccc23)no1", "Potency": "active: 31.6 µM"}, {"smiles": "CC(Nc1ccc2c(c1)OCCO2)C(=O)N1c2ccccc2CC1C", "note": "(stereo not given)", "Potency": "inconclusive: 89.1 µM [inhibitor, single point]"}, {"smiles": "Cc1ccc(C(C[N+](=O)[O-])c2c(-c3ccccc3O)[nH][nH]c2=O)cc1", "note": "(stereo not given)", "Potency": "inconclusive: 39.8 µM [inhibitor, full curve, poor fit]"}, {"smiles": "O=C(CN1CCN(C(=O)c2ccco2)CC1)N1CCc2[nH]c3ccccc3c2C1", "Potency": "inactive"}, {"smiles": "C1=C(N2CCOCC2)/C(=C/c2nc3ccccc3[nH]2)CC1", "Potency": "inconclusive: 44.7 µM [inhibitor, partial curve]"}, {"smiles": "O=C(CSc1nnc(NC(=O)c2c(F)cccc2Cl)s1)Nc1ccccc1F", "Potency": "inconclusive: 20 µM [inhibitor, full curve]"}, {"smiles": "Cc1ccc(NC(=S)NNc2ccc([N+](=O)[O-])cc2S(=O)(=O)Nc2ccccc2C(=O)O)cc1C", "Potency": "inconclusive: 31.6 µM [inhibitor, full curve]"}, {"smiles": "Cc1cccc(NC(=S)NCCc2ccc(S(N)(=O)=O)cc2)c1C", "Potency": "inconclusive: 39.8 µM [inhibitor, single point]"}, {"smiles": "COc1ccc(/C=N/n2c(=O)[nH]c3c([nH]c4ccc(F)cc43)c2=O)cc1CN1CCCCC1", "Potency": "inconclusive: 3.55 µM [inhibitor, full curve, poor fit]"}, {"smiles": "COc1ccc(C(=O)N/C(=C/c2ccco2)C(=O)NCc2ccco2)cc1", "Potency": "inconclusive: 22.4 µM [inhibitor, single point]"}, {"smiles": "Cc1cc(OCC(=O)OCC(=O)NCc2cccs2)ccc1Cl", "Potency": "inconclusive: 22.4 µM [inhibitor, full curve, poor fit]"}, {"smiles": "CC(Sc1nc2ccc(C(=O)c3ccccc3)cc2[nH]1)C(=O)O", "note": "(stereo not given)", "Potency": "inconclusive: 79.4 µM [inhibitor, single point]"}, {"smiles": "CCOC(=O)/C(C#N)=C/c1cccn1-c1ccc(Cl)cc1", "Potency": "inactive"}, {"smiles": "O=C(CS(=O)c1ccc(C(F)(F)F)cc1[N+](=O)[O-])Oc1ccc(Cl)cc1", "note": "(stereo not given)", "Potency": "inconclusive: 56.2 µM [inhibitor, partial curve]"}, {"smiles": "O=C1c2cccc(NCCNCCO)c2C(=O)c2cccc(NCCNCCO)c21", "Potency": "active: 7.08 µM"}, {"smiles": "COc1cc(/C=C2\\SC(=S)N(NC(=O)c3cccnc3)C2=O)ccc1O", "Potency": "active: 50.1 µM"}, {"smiles": "COc1cc2[nH]c(=S)nc(Nc3ccc(NC(C)=O)cc3)c2cc1OC", "Potency": "inactive"}, {"smiles": "COc1ccccc1N1C(=O)C=C(Sc2nc(C)cc(C)n2)C1=O", "Potency": "inconclusive: 56.2 µM [inhibitor, partial curve]"}]}]}
